Sequences and labels used below:
B1: Kibra (Kbr), Drosophila (protein, UniProt Q9VFG8 1-1288)
chain: MPNLQQTASQSQHHLHPHHLRPQQQQQQHHHHHQQQQQQQHTHHQQQQQHHSDFPLPDGWDIAKDFDGKTYYIDHINKKTTWLDPRDCYTKPQTFEDCVGDELPMGWEESYDPNIGPYYINHLAQSTQLEDPRQEWKTVQEQMLSDYLSAAQDQLENKREMFDVKQQRLLWAQEEYNHLKLAASRSSLCSSSSSMSRHDPELLRADLMLARERVHQLKQELTHITNDISYTERGMNTLYSVGEKINARENGCYDIAEVHAIREEMLKVHKSLVSGEKVREELMRSLVQIKNELGRQQISEENSDLASPFDRVCVASQTDLCGSSGENLNGGARFAEMAKTKWQYAEWRKHIKKLQQQLADHVERIEPGQLESDKDRILLIQEKEKLLNDLNSISLKSRSEEEKRVIHQTRHKLEEDLKEAYEANNTCVANRLRFHEEKQLLLDKLQEALKSTKLLEERLKSFSSESTFSISSGSSLGSLSTASSKSALSFTDIYIDPFAVDSPIDVVDLRRRSQRLFQQHQQQRLHPVHPVLQQQQSAEVTLSPRSSLSMETPPASPMKYNAGADQTPQALKEEPTYANALPAPPAYTAPPPVPISGVRARPYDLDSTVLDCMMLEAKLQKLNMGTPLNLAVAPLSPISEKPSLLDLPQEMLSRSSSTSNTRSVSAAVSNESVAGDSGVFEASRAHLPRKELAQVQIGLKYLKQEGVLVVSLERANNLLALWTASADNSQVYLRAALLPNSLTSIRTKALGDFQKPVFNDTFAVPITLDKLLTKSLQVTVVTMTGQKEEIIGTVQISMAEFNPEDSTLKWYNVLSSKFIPSFESLDIPSTSAAAAAAAVAASNAPNPGNNREESSDESTITSSQTSTLTRNQAPCMELQEQMAAELLGLGPLNEPECSDDDDDDEEEELDDKQLVSDVGLMNSSSMLHAYLQNMKQEFADKETNTDRAYLPEKSRGQSQLMDDRPVKRSQTFTPSEAFSKNRYNCRLNRSDSDSAMHCGVAPHTFQRGAAERRSLRFHSKAPKSVTKLHHTHIPRTSLDLELDLQAQHSKLYFLNDQIAKLQNLKEVLQKACENKDPLVAAWAIENEEFQRLVARADPAKCPEERQLQKLLMKTAKEIHKLRKTKVPKGCPDLVSFKEKITFFTRKGLSVPELPSEFTLPEANPIEEEEEEEDENEFYNSAETAIAINTALVASSNRNKNLSEHPHRATSGAVPKIPAPVVTPAATPAATPAATPAATSAATPAATPVVSPAAQPDAKPADAPIPVASNDAEQQRFDYVVDRNYGVEV
B2: spaghetti squash (protein, UniProt P40423 1-174)
chain: MSSRKTAGRRATTKKRAQRATSNVFAMFDQAQIAEFKEAFNMIDQNRDGFVEKEDLHDMLASLGKNPTDDYLDGMMNEAPGPINFTMFLTLFGERLQGTDPEDVIKNAFGCFDEENMGVLPEDRLRELLTTMGDRFTDEDVDEMYREAPIKNGLFDYLEFTRILKHGAKDKDEQ
B3: Nrv1 (Nervana1), β-subunit of the Na+, K+ ATPase (protein, UniProt Q24046 1-309)
chain: MSKNNGKGAKGEFEFPQPAKKQTFSEMIYNPQEGTFFGRTGKSWSQLLLFYTIFYIVLAALFTICMQGLLSTISDTEPKWKLQDSLIGTNPGLGFRPLSEQTERGSVIAFDGKKPAESDYWIELIDDFLRDYNHTEGRDMKHCGFGQVLEPTDVCVVNTDLFGGCSKANNYGYKTNQPCIFLKLNKIFGWIPEVYDKEEKDMPDDLKKVINETKTEERQQVWVSCNGHLGKDKENFQNIRYFPSQGFPSYYYPFLNQPGYLSPLVAVQFNSPPKGQMLDVECRAWAKNIQYSGSVRDRKGSVTFQILLD
B4: myosin alkali light chain (protein, UniProt P06742 1-155)
chain: MADVPKREVENVEFVFEVMGSPGEGIDAVDLGDALRALNLNPTLALIEKLGGTKKRNEKKIKLDEFLPIYSQVKKEKEQGCYEDFIECLKLYDKEENGTMLLAELQHALLALGESLDDEQVETLFADCMDPEDDEGFIPYSQFVQRLMSDPVVFD
B5: Wings up A (WupA) (protein, UniProt P36188 1-269)
chain: MADDEKKAAAPAAAPAAAAKPAAPAAAPAANGKAAPAANGKAAPAAAAAPAGPPKDPNDPKVKAEEAKKAKQAEIERKRAEVRKRMEEASKAKKAKKGFMTPERKKKLRLLLRKKAAEELKKEQERKAAERRRIIEERCGSPRNLSDASEGELQEICEEYYERMYICEGQKWDLEYEVRKKDWEINDLNAQVNDLRGKFVKPALKKVSKYENKFAKLQKKAAEFNFRNQLKVVKKKEFTLEEEEKEKKPDWSKGKPGDAKVKEEVEAEA
B6: Hts/Add (Hu li tai shao/Adducin) (protein, UniProt Q02645 1-1156)
chain: MTEVEQPPQNGIDPTAGEDDDNSKARPADIEQDMREMERRKRVEAIMGSKLFREELERIVDSARDGGAGASGILQQLSDIVGVPVSRVGSVFKSSNCMVPINDIRGVESMGYAKGEKILRCKLAATFRLLDLYGWTQGLGAQITARLKVDQEYFLVNPYGLLYHEITASALNKVDMQGQIVEQGTTNFGGNKSHFVLHSVVHAARPDIRCAIYIGCSPVVAISSLKTGLLPLTKDACVLGEITTHAYTGLFDEEERNRLVRSLGPNSKVILLTNHGALCCGETIEEAFFAACHIVQACETQLKLLPVGLDNLVLIPEESRKAIYEQSRRPPEDLEKKFAAVAAAEDGAATAEKDAAEAVPKVGSPPKWRVGGAEFEALMRMLDNAGYRTGYIYRHPLIKSDPPKPKNDVELPPAVSSLGYLLEEEELFRQGIWKKGDIRKGGDRSRWLNSPNVYQKVEVLETGTPDPKKITKWVAEGSPTHSTPVRIEDPLQFVPAGTNPREFKRVQQLIKDNRRADKISAGPQSHILEGVTWDEASRLKDATVSQAGDHVVMMGAASKGIIQRGFQHNATVYKAPYAKNPFDNVTDDELNEYKRTVERKKKSVHGEYTDTDFSESEAVLQAGTKKYPQSEPETEHQVIEIQTQQAPVPRQAEVVLSDALVSQLAQKYAFLYSPGQYMYACMKMAPLMHKVYVIHKVEPVSKHNYPPVNDGNMSIHHNESGAGFMAQESSVISSTPVRNALASVSLPEERNHSILGLSSTPYRTISHFGFNCPLITSPTILLHPEHRSIWQRVAEQREKVVSFIDLTTLSLDNRKLLNVVTSTHPTQCQSQSQSFISEKHIQLEVTPPKRKQRVYSATISSGLDDSLDELDSLMSGLAINMPRSREQDSGLYRSYTFLPSNHALPKDTDANNRDQTDRERPEAEQEESFHCAGDSGIGDSTGRRPRLATTSNDSSIQEAEAYTQGKHVKLTLSSSPTPTATQSPATIEILINVSLRNAECVQTVQTHEQEFRAKLERVIDEEIHYISQQLAFKQRQAELHEQQTTSRAPIATPSFTTMHPPAPASSSSMVHRSNSAPELCHTYSYVAVGDLSTKQDQASPQLPAEGEPLNDILSSLEKELERLLNSVVTAHMLHNKAIIHECRARFSQLADGIVSS
B7: gelsonin (protein, UniProt Q07171 29-798)
chain: GTLNARPAFPVQSGEIQPSGQNSKQAARRVMHPSFANAGRTPGLEIWRIENFEPVIYPKTNYGKFYTGDSFIVLNTIENKKDKKLSWDVHFWLGLETSTDEAGAAAILTVQLDDLLNGGPVQHREVQDHESQLFLSYFKNGIRYEQGGVGTGFKHVETNAQGETRLFQVKGKRNVRVRQVNLSVSSMNTGDCFILDAGSDIYVYVGSQAKRVEKLKAISAANQIRDQDHNGRARVQIVDDFSTDADKQHFFDVLGSGSADQVPDESTADEDSAFERTDAAAVSLYKVSDASGKLKVDIIGQKPLTQAMLDTRECFILDTGSGIFVWVGKGATQKEKTDAMAKAQEFLRTKKYPAWTQIHRIVEGSESAPFKQYFDTWRDAGMSHSRLIRSALGIGSDELLNDDEIDSVVTQLKKSGGRAFGFMPDHGQNVIETITQYVAKPGSDEIVVSTVPFDEKLPLLGFASYVLTYNYEANNGDTGSLTYVWHGVKASAAARKRAFEEGLVGSKDGLLVQTNQGHEPRHFYKIFKGKLLTSFTALPVTAQLFRIRGTVESDVHASEVAADSSSLASSDAFVLHSGKSHKIYIWNGLGASAFEKQAAVDRFSDYWDDVELEQVEEGAEPDEFWEELNGEGQYDRSLGDDGAPLLESRLFHCHLSSGGFLKVEEVAQYEQEDLDSDDIMLLDAGDEIYLWVGYGVSEEENGKLLDTAKLYFNLEPTARSFDTVSIIRVPQGKEPRVFKRMFPNWDDNYWQNQPSYEDMKQLVIDANNEV
B8: Yorkie (Yki) (protein, UniProt Q45VV3 1-395)
chain: MLTTMSASSNTNSLIEKEIDDEDMLSPIKSNNLVVRVNQDTDDNLQALFDSVLNPGDAKRPLQLPLRMRKLPNSFFTPPAPSHSRANSADSTYDAGSQSSINIGNKASIVQQPDGQSPIAAIPQLQIQPSPQHSRLAIHHSRARSSPASLQQNYNVRARSDAAAANNPNANPSSQQQPAGPTFPENSAQEFPSGAPASSAIDLDAMNTCMSQDIPMSMQTVHKKQRSYDVISPIQLNRQLGALPPGWEQAKTNDGQIYYLNHTTKSTQWEDPRIQYRQQQQILMAERIKQNDVLQTTKQTTTSTIANNLGPLPDGWEQAVTESGDLYFINHIDRTTSWNDPRMQSGLSVLDCPDNLVSSLQIEDNLCSNLFNDAQAIVNPPSSHKPDDLEWYKIN

No constants are given. Whether binding was seen depends on the method and setting. Binding seen in cells or lysates may run through a third protein. Here binding means that the protein was enriched with, or labelled near, the bait; the list need not be complete.

For the assay, the target named is C-terminal GFP-tagged version of full-length Dg (dystroglycan) (Drosophila). The assay is described as follows: affinity purification with mass spectrometry; Dg::GFP captured on GFP-Trap beads from whole lysates of 1-week-old flies (Mhc-Gal4/UAS-Dg::GFP) in RIPA buffer, overnight at 4 °C, six washes; control Mhc-Gal4/+; three biological replicates; hits: significant ≥ 2-fold increase over control.
Regarding B1, the binding entry is “binds”.
For B2, the binding entry is recorded as “binds”.
In the case of B3 it was “binds”.
On to B4, for which the binding result is listed as “binds”.
In the case of B5 it was “binds”; in that of B6, “binds”; in that of B7, “binds”.
Then B8, with “binds”.

These data come from publication PMC6971923.
